# No constants are given. Whether binding was seen depends on the method and setting. Some entries that bind do so weakly or less than the wild type.
# T1: RGMa in mouse cortical neurons (mouse) (UniProt Q6PCX7)
# T1 sequence (looked up): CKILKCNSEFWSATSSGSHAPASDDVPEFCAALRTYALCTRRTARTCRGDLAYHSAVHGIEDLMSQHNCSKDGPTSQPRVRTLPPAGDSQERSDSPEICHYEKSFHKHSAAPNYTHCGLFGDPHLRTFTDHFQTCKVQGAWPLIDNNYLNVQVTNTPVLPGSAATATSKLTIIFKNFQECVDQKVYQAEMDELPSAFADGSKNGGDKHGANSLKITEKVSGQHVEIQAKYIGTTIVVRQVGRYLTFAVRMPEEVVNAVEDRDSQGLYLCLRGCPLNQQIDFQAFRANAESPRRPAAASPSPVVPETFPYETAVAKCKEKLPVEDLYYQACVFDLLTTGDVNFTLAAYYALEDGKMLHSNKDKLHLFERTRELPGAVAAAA
# Tests used:
# [1] = molecular target: T1, RGMa in mouse cortical neurons (mouse); assay: western blot of mouse cortical neuron lysates
# [2] = molecular target: T1, RGMa in mouse cortical neurons (mouse); assay: immunostaining of cultured mouse primary cortical neurons
binding [1],binding [2],Binder
binds,–,"AE12-1 (antibody, V domains shown) VH: EVQLVQSGAEVKKPGASVKVSCKASGYTFTSHGISWVRQAPGQGLDWMGWISPYSGNTNYAQKLQGRVTMTTDTSTSTAYMELSSLRSEDTAVYYCARVGSGPYYYMDVWGQGTLVTVSS VL: QSALTQPRSVSGSPGQSVTISCTGTSSSVGDSIYVSWYQQHPGKAPKLMLYDVTKRPSGVPDRFSGSKSGNTASLTISGLQAEDEADYYCCSYAGTDTLFGGGTKVTVL"
binds,binds,"AE12-1-Y (antibody, V domains shown) VH: EVQLVQSGAEVKKPGASVKVSCKASGYTFTSHGISWVRQAPGQGLDWMGWISPYSGNTNYAQKLQGRVTMTTDTSTSTAYMELSSLRSEDTAVYYCARVGSGPYYYMDVWGQGTLVTVSS VL: QSALTQPRSVSGSPGQSVTISCTGTSSSVGDSIYVSWYQQHPGKAPKLMLYDVTKRPSGVPDRFSGSKSGNTASLTISGLQAEDEADYYCYSYAGTDTLFGGGTKVTVL"

# — patent US20250304672A1
